Results as given in PubChem BioAssay AID504467 (National Center for Advancing Translational Sciences (NCATS), 2011).
The whole screen tested about 330,000 compounds, of which about 7,700 (2.3%) were called active. Inconclusive results, whose numbers are uncertain, are shown with a selection of clear calls. Calls follow the shape of the dose curve; as a rule, active = well fitted inhibition curve with a large enough effect; inconclusive = small, poorly fitted or top-dose-only effect, or effect the other way; inactive = flat fitted curve, though single readings scatter. Potencies of inconclusive entries are doubtful fits and often do not repeat.

assay: qHTS screen for small molecules that inhibit ELG1-dependent DNA repair in human embryonic kidney (HEK293T) cells expressing luciferase-tagged ELG1; conditions: HEK293T ELG1-luciferase reporter, luminescence, 16 h, DNA damage induced by 5-fluorouridine; activity change, negative = inhibition: at 46.1 µM (top of the series); also: nearly all actives have a fitted effect of over 55% in size
Method in brief: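 Quantitative HTS, concentration-response format. 2,000 cells/well co-treated with 5-fluorouridine and compound, 16 hr in 5% CO2 at 37 °C; ONE-Glo luminescence read after 30 min.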
% is scaled to controls: 0 for no effect and ±100 for the full control effect; potency is read from the fitted curve at half-maximal effect.

Structure (SMILES)	activity change, negative = inhibition	Potency
Cc1c(-c2ccccc2)sc2nc[nH]c(=S)c12	inactive: 13.3%	–
C=CCn1c(SCC(=O)NC2CCCC2)nnc1-c1ccccn1	inactive: 3.97%	–
O=C(N/N=C/c1ccccc1F)NC1CCCCC1	–	inconclusive: 11.6 µM [activator, partial curve]
CS(=O)(=O)N(CC(=O)N1CCN(C(c2ccccc2)c2ccccc2)CC1)C1CCCCC1	–	inconclusive: 23.1 µM [inhibitor, partial curve]
Nc1nc(-c2ccc(Oc3ccccc3)cc2)cs1	–	inconclusive: 10 µM [activator, partial curve]
Cc1ccc(C(=O)C2CCN(CC(=O)Nc3ccccc3C)CC2)cc1	–	inconclusive: 29.1 µM [inhibitor, single point]
CCc1c(C)nc2[nH]nc(-c3ccccc3)n2c1=O	–	inconclusive: 25.9 µM [activator, single point]
O=C(Nc1ccc(N2CCCC2)cc1)C(Cl)c1ccccc1 (stereo unspecified)	–	inconclusive: 10.3 µM [activator, partial curve]
Cc1ccc(-c2nnc(N3CCN(CCO)CC3)c3ccccc23)cc1	inactive: 19.7%	–
COc1cccc2c1OCC(C(=O)NCc1ccc(Cl)cc1Cl)=C2	–	inconclusive: 29.1 µM [inhibitor, single point]
COc1ccc(-n2c(-c3ccc(Br)cc3)c[n+]3c2CCc2ccccc2-3)cc1	–	inconclusive: 7.31 µM [inhibitor, partial curve, poor fit]
Cc1cc(=O)[nH]c2c(N=Nc3ccc(O)cc3)c(N)nn12	–	inconclusive: 23.1 µM [inhibitor, partial curve, poor fit]
Cc1ccc2cc(CCNS(=O)(=O)c3ccc(Cl)cc3)c(=O)[nH]c2c1C	–	inconclusive: 32.6 µM [inhibitor, single point]
Nc1sc2c(c1C(=O)NC1CC1)CCCC2	–	inconclusive: 29.1 µM [activator, partial curve, poor fit]
Cc1cccc(CSc2ccc(-c3ccco3)nn2)c1	–	inconclusive: 16.4 µM [activator, partial curve]
CCC(Oc1ccccc1)C(=O)Nc1ccc(S(=O)(=O)Nc2cc(C)on2)cc1 (stereo unspecified)	inactive: -1.73%	–
C=C(C)C1CCC(C)=C1COC(=O)Nc1ccccc1 (stereo unspecified)	inactive: -3.5%	–
Cc1ccc(N(CC(N)=O)C2SC(=O)N(Cc3ccccc3)C2=O)cc1 (stereo unspecified)	inactive: 2.31%	–

In another format: two of the compounds above.
Cc1c(-c2ccccc2)sc2nc[nH]c(=S)c12
  activity change, negative = inhibition: inactive: 13.3%
COc1cccc2c1OCC(C(=O)NCc1ccc(Cl)cc1Cl)=C2
  Potency: inconclusive: 29.1 µM [inhibitor, single point]

Following part:

Structure (SMILES)	activity change, negative = inhibition	Potency
c1csc(-n2nc3ccccc3n2)c1	–	inconclusive: 20.6 µM [inhibitor, single point]
CCCCNC(=O)/C(C#N)=C/c1ccc2c(c1)OCCO2	–	inconclusive: 25.9 µM [activator, partial curve, poor fit]
COc1ccccc1NC(=O)COc1ccccc1	–	inconclusive: 20.6 µM [activator, single point]
Cc1nc2oc3ccc(Cl)cc3c(=O)c2cc1C(=O)O	–	inconclusive: 20.6 µM [activator, single point]
COc1cc(C(=O)Nc2c(C)cc(C)cc2C)c(Br)c(OC)c1OC	inactive: -10.8%	–
COc1cccc(OCc2cc(C(=O)NCC3CCCCC3)no2)c1	–	inconclusive: 32.6 µM [activator, partial curve, poor fit]
Cc1cccc(S(=O)(=O)c2c(N)n(Cc3ccco3)c3nc4ccccc4nc23)c1	–	inconclusive: 20.6 µM [inhibitor, single point]
CC(C)(C)c1ccc(N/N=C(\C#N)S(=O)(=O)C(C)(C)C)cc1	–	inconclusive: 5.8 µM [inhibitor, partial curve, poor fit]
CCC(CC)CN1C(Nc2ccccc2)=NC[C@@H]1CC(C)C	inactive: -5.56%	–
CCc1ccccc1N1CSC2=C(C#N)C(c3cc(OC)c(OC)cc3OC)CC(=O)N2C1 (stereo unspecified)	–	inconclusive: 16.4 µM [inhibitor, single point]
O=C(CSc1n[nH]c(-c2ccco2)n1)Nc1ccccc1	inactive: 12.8%	–
CSCCC(NS(=O)(=O)c1ccccc1F)C(=O)N1CCCCCCC1 (stereo unspecified)	inactive: -11.3%	–
COc1ccc(CCNC(=O)c2ccc3c(c2)OCCO3)cc1	–	inconclusive: 16.4 µM [activator, partial curve]
N#Cc1cc2c(nc1SCc1cccnc1)CCC2	–	inconclusive: 23.1 µM [activator, single point]
O=c1c2cc(N3CCOCC3)ccc2[nH]c(=S)n1Cc1cccc(Cl)c1	inactive: -3.98%	–
CCOc1ccccc1OCC(=O)NCCc1ccc(S(N)(=O)=O)cc1	inactive: 4.31%	–
COCCCNC(=S)N1CCCN(c2nc3cc(C)ccc3cc2C#N)CC1	–	active: 20.6 µM
COc1ccc(NC(=O)C(=S)N2CCCC2)cc1	–	inconclusive: 18.3 µM [activator, partial curve]
